# Experimental data as given in PubChem BioAssay AID493014 (National Center for Advancing Translational Sciences (NCATS), 2011).
# The other results are listed elsewhere or left out. The main result of the screen is listed elsewhere. These columns were measured beside it and carry no call. The list favours compounds with an active or inconclusive main result. The note in brackets gives the kind of curve behind each potency; many fits are weak.
# Test: qHTS Assay to Find Inhibitors of Chronic Active B-Cell Receptor Signaling
# Settings: ABC-DLBCL IkBa-CBG/CBR reporter, luminescence ratio (green luciferase fused to IkBa over red control in TMD8 lymphoma cells), 4 h
# Outline: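 Concentration-response series (up to 46 uM) were applied to TMD8 dual-reporter cells for 4 h at 37C with doxycycline. Green/red ratio, after filter-overlap correction, defined %Activity; red signal alone was normalised to basal cells and zero luminescence.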
# [1] = measured here: CBR red luminescence, cell number
# [2] = measured here: IkBa-CBG green luminescence
SMILES,AC50 [1],AC50 [2]
Cc1c(NC(=O)COC(=O)Cn2cc(C(F)(F)F)ccc2=O)cccc1[N+](=O)[O-],"11.6 µM [rising, partial curve, poor fit]",–
Oc1ccc(-c2csc(Nc3ncccn3)n2)cc1O,"12.6 µM [falling, partial curve, poor fit]",–
O=C(Cc1ccc(F)cc1)NCC1CCCO1 (stereo unspecified),"35.5 µM [falling, single point]",–
O=C(NC(=S)Nc1ccc(Cl)cn1)c1cccs1,"8.91 µM [falling, partial curve, poor fit]",–
CC(=O)c1sc(-c2ccc(F)cc2)cc1NS(=O)(=O)c1ccc(C)cc1,"7.08 µM [rising, partial curve]",–
O=S(=O)(N1CCCCC1)N1CCN(c2ccc(F)cc2)CC1,"29.1 µM [rising, single point]",–
COc1cc2c(cc1OC)CN(C(=O)COc1ccccc1[N+](=O)[O-])CC2,"2.82 µM [falling, full curve]",–
CCSc1nnc(NC(=O)c2ccccn2)s1,"16.4 µM [falling, partial curve, poor fit]","29.1 µM [falling, single point]"
O=C(Oc1ccccc1C(=O)Oc1ccccc1)c1cccnc1,"35.5 µM [rising, single point]","35.5 µM [falling, single point]"
C#CCOCCOCCOCCNc1nc(N2CCN(C(=O)CCCCCCCCCCNC(=O)[C@H]([C@@H](C)CC)n3cc(CCCCN=C(N)N)nn3)CC2)nc(N2CCN(C(=O)CCCCCCCCCCNC(=O)[C@H](CO)n3cc(CCCSC)nn3)CC2)n1,"4.61 µM [rising, partial curve]","5.17 µM [falling, single point]"
Cn1c(=O)oc2cc(S(=O)(=O)NCc3ccncc3)ccc21,"11.2 µM [falling, partial curve, poor fit]",–
O=C(COc1ccc(Cl)cc1)Nc1ncc([N+](=O)[O-])s1,"0.126 µM [falling, full curve, poor fit]",–
Cn1c(=O)c2c(nc(Cc3ccccc3)n2C)n(C)c1=O,"1 µM [falling, partial curve, poor fit]",–
COc1nc(N2CCCCCC2)nc(N2CCCCCC2)n1,"20.6 µM [rising, partial curve, poor fit]","20.6 µM [falling, single point]"
Cc1noc(C)c1CSCC(=O)OCc1nnc(-c2ccc([N+](=O)[O-])cc2)o1,"29.1 µM [rising, single point]",–
Cc1ncc([N+](=O)[O-])n1CCOC(=O)NC(NCc1ccccc1)C(Cl)(Cl)Cl (stereo unspecified),"3.98 µM [falling, partial curve, poor fit]",–
COC(=O)C1=C(C)N(Cc2ccccc2)C(=NCC(C)C)N[C@H]1c1ccccc1,"10 µM [falling, partial curve]",–
C/C(N)=C(/C#N)C(=O)COC(=O)c1ccc(C)c(S(=O)(=O)N2CCCCC2)c1,"14.6 µM [falling, partial curve, poor fit]",–
CCCOc1cccc(-c2cc(C(=O)N/N=C/c3ccccn3)c3ccccc3n2)c1,"2.51 µM [rising, full curve, poor fit]",–
CCOc1ccccc1OCCCC(=O)Nc1ccc(OC)nc1,"2.31 µM [rising, partial curve]",–

# Some of these compounds in order of count of non-hydrogen atoms, rising:
SMILES,AC50 [1],AC50 [2]
O=C(Cc1ccc(F)cc1)NCC1CCCO1 (stereo unspecified),"35.5 µM [falling, single point]",–
COc1nc(N2CCCCCC2)nc(N2CCCCCC2)n1,"20.6 µM [rising, partial curve, poor fit]","20.6 µM [falling, single point]"
CCOc1ccccc1OCCCC(=O)Nc1ccc(OC)nc1,"2.31 µM [rising, partial curve]",–
COc1cc2c(cc1OC)CN(C(=O)COc1ccccc1[N+](=O)[O-])CC2,"2.82 µM [falling, full curve]",–
CCCOc1cccc(-c2cc(C(=O)N/N=C/c3ccccn3)c3ccccc3n2)c1,"2.51 µM [rising, full curve, poor fit]",–

# Going on with the list.

SMILES,AC50 [1],AC50 [2]
CC(Sc1nnc(COc2ccc([N+](=O)[O-])cc2)n1-c1ccccc1)C(=O)O (stereo unspecified),"35.5 µM [falling, single point]",–
COc1ccc(C(=O)NCCc2nnc(SCC(=O)Nc3ccccc3)n2C)cc1,"0.326 µM [falling, partial curve, poor fit]",–
c1ccc(N2CCN(Cc3nc4ccccc4[nH]3)CC2)nc1,"5.62 µM [falling, single point]",–
Cc1cc(C)cc(NC(=O)C2CCN(S(=O)(=O)c3ccc4c(c3)NC(=O)C(C)S4)CC2)c1 (stereo unspecified),"14.1 µM [falling, single point]",–
CC1=C(C(=O)Nc2ccc([N+](=O)[O-])cc2)C(c2cccc(C(F)(F)F)c2)NC(=S)N1c1ccccc1 (stereo unspecified),"25.9 µM [falling, single point]",–
Cc1ccc(-c2nn3c(C)nnc3c3ccccc23)cc1S(=O)(=O)N1CCN(CCO)CC1,"12.6 µM [rising, partial curve, poor fit]",–
Cc1ccc(N=C/C(C(=O)C(F)(F)F)=C(\O)c2ccco2)cc1Cl,"1.84 µM [rising, partial curve]",–
CN(CC(=O)Nc1ccccc1Br)C(=O)CCCSc1nc2ccccc2[nH]1,"13 µM [rising, partial curve, poor fit]",–
O=C1c2ccccc2C(=O)c2[nH]cnc21,"7.08 µM [falling, partial curve]",–
CC(C)Cn1c(=O)c(CCC(=O)Nc2ccc(N3CCOCC3)cc2)nc2cc(Cl)ccc21,"1.26 µM [rising, full curve, poor fit]",–
Cc1ccnc(NC(=O)c2ccc(Cl)s2)c1,"28.2 µM [falling, single point]",–
Cc1ccc2nc(N3CCCCC3)c(C=O)c(=O)n2c1,"12.6 µM [rising, single point]",–
COC(=O)c1ccc(CSc2nc(C(F)(F)F)c3c(c2C#N)CCC3)o1,–,"12.6 µM [rising, partial curve, poor fit]"
O=C(c1cc(-c2ccc(O)cc2)on1)N1CCc2ccccc2C1,"22.4 µM [falling, partial curve, poor fit]",–
O=C(NNC(=O)C1C2CCC(C2)C1C(=O)O)c1ccc(Cl)cc1 (stereo unspecified),"10 µM [falling, partial curve]",–
O=C(NCCn1cc(SCc2ccc(F)cc2)c2ccccc21)c1c(F)cccc1F,"29.1 µM [falling, single point]",–
COC(=O)C1C(c2ccccc2)C(C(=O)OCc2ccco2)C1c1ccccc1 (stereo unspecified),"6.51 µM [falling, full curve]",–
CC(OC(=O)CCCSc1nc2ccccc2s1)C(=O)NC(N)=O (stereo unspecified),"10 µM [falling, partial curve]",–
O=C(CNc1cccc(F)c1)Nc1cccc(S(=O)(=O)N2CCCCC2)c1,"6.51 µM [rising, partial curve, poor fit]",–
Cc1ccc(Nc2nc(N)nc(CSc3ncccn3)n2)cc1,"16.4 µM [falling, partial curve]",–

SMILES,AC50 [1],AC50 [2]
Cc1cc(C(=O)NCCc2ccc(Cl)cc2)c(C)o1,"14.1 µM [falling, single point]",–
O=C(NCCS(=O)(=O)N1CCN(c2ccc(F)cc2)CC1)C12CC3CC(CC(C3)C1)C2,"5.8 µM [rising, partial curve, poor fit]",–
CCN(CCCNC(=O)C1CCN(S(=O)(=O)c2cnc[nH]2)CC1)c1ccccc1,"10.3 µM [falling, single point]",–
COc1ccccc1-n1cc(-c2ccc(Br)cc2)[nH]c1=S,"8.91 µM [falling, partial curve, poor fit]",–
CC1CCN(C2=NC(=O)/C(=C/c3cccc(O)c3)S2)CC1,"35.5 µM [falling, single point]",–
Nc1nc(N)nc(-c2ccc(Cl)c(Cl)c2)n1,"29.1 µM [falling, single point]","20.6 µM [rising, partial curve, poor fit]"
Cc1cc(Oc2ccc(Cl)cc2)nc(-c2ccccc2O)n1,"1.84 µM [rising, full curve, poor fit]",–
O=C(CN(C(=O)CCC(=O)Nc1ccccn1)c1ccc(F)cc1)NCc1ccco1,"8.91 µM [falling, partial curve]",–
CCOC(=O)C1CCCN(C(=O)c2cn(CC)c3ccc(S(=O)(=O)N(C)C)cc3c2=O)C1 (stereo unspecified),"0.103 µM [falling, full curve, poor fit]",–
Cc1c(/C=C/C(=O)c2ccc(O)cc2)cnn1C,"20.6 µM [falling, single point]",–
CN(C)c1ccc(N=Cc2cccn2C)cc1,"4.47 µM [falling, full curve]",–
COc1cc(NC(=O)c2ccc(CNc3c(N4CCCC4)c(=O)c3=O)cc2)cc(OC)c1OC,"3.98 µM [rising, single point]",–
COc1ccccc1C(=O)Nc1c(C(=O)N(CCN(C)C)Cc2ccco2)oc2ccccc12,"15.8 µM [falling, single point]",–
O=C1CC(c2ccncc2)c2cc3c(cc2N1)OCO3 (stereo unspecified),"29.1 µM [falling, single point]",–
Cc1c(OC(C)C(=O)O)ccc2c(-c3ccccc3)cc(=O)oc12 (stereo unspecified),"8.91 µM [rising, partial curve, poor fit]",–
COc1ccnc(CSC(N)=Nc2cccc(C(F)(F)F)c2)c1,"20.6 µM [falling, partial curve]","16.4 µM [falling, partial curve, poor fit]"
O=C(N/N=C/c1ccc[nH]1)c1ccc(O)cc1,"3.55 µM [falling, partial curve]",–
CCCNC(=O)N(C)c1nncnc1C(=O)NC,"17.8 µM [rising, partial curve, poor fit]",–
CC(=O)C1=C(C)NC(SCC(=O)c2ccc(Cl)cc2Cl)=C(C#N)C1c1ccco1 (stereo unspecified),"35.5 µM [falling, single point]",–
COc1ccc(CC(NC(C)=O)C(=O)NC2CCN(C(=O)c3ccccc3F)CC2)cc1 (stereo unspecified),"31.6 µM [rising, single point]",–
